These are yes or no findings as the source states them, for the method shown. Binding seen in cells or lysates may run through a third protein. Some binding calls cover weakened binding; strength is not graded here. For some assays here: Tags and fused reporters may be left off the sequences shown. Values belong to the molecule of their own block, whether it stands above or below them.
Columns and labels:
[1] = target: T1, GFP-tagged full-length MAGI3 (UniProt Q5TCQ9); assay: co-IP; COS-7 cells transfected with Flag-β-catenin and/or GFP-MAGI3; lysates immunoprecipitated with anti-GFP, blotted with anti-Flag
T1 sequence: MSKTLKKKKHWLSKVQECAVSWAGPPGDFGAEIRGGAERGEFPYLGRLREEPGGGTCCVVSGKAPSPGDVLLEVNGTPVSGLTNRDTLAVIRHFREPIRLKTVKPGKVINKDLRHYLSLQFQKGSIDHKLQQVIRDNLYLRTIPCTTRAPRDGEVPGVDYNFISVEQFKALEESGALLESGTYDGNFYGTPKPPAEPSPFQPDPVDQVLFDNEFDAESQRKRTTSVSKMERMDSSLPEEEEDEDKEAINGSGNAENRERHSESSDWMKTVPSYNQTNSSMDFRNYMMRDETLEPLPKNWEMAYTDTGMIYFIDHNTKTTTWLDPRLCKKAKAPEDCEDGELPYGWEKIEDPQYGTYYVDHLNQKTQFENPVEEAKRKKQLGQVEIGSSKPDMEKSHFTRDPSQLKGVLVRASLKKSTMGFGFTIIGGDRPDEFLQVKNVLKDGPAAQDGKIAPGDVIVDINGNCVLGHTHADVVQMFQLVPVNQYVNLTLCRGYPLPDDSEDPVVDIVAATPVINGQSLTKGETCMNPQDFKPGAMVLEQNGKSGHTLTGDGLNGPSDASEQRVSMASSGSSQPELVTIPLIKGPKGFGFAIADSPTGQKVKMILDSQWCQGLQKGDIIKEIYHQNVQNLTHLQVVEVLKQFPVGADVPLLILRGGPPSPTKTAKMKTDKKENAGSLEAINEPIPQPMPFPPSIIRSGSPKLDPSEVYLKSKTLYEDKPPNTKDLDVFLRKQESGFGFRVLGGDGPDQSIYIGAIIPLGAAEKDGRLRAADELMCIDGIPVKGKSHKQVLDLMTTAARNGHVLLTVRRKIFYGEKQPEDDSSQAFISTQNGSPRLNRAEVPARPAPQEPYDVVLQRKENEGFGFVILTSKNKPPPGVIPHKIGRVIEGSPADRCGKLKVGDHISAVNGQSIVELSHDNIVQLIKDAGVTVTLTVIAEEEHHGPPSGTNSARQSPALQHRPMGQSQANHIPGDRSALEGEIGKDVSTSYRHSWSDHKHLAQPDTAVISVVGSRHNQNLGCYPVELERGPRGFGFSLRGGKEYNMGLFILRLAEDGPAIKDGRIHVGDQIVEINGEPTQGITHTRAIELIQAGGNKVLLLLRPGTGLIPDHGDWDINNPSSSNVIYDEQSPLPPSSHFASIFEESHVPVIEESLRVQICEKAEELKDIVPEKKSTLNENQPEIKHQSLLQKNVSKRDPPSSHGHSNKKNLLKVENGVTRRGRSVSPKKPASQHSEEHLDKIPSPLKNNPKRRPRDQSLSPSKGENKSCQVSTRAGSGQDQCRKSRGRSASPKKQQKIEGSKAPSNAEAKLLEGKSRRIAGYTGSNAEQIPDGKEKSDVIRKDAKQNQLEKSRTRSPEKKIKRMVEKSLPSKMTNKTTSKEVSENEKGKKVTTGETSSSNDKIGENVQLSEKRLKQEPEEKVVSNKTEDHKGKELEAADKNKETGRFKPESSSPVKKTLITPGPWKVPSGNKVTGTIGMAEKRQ

[2] = target: T2, MAGI3, endogenous in C6 glioma cells (rat (endogenous in C6)) (UniProt Q9JK71); assay: co-IP; endogenous proteins; C6 cell lysates immunoprecipitated with anti-MAGI3, blotted with anti-β-catenin
T2 sequence: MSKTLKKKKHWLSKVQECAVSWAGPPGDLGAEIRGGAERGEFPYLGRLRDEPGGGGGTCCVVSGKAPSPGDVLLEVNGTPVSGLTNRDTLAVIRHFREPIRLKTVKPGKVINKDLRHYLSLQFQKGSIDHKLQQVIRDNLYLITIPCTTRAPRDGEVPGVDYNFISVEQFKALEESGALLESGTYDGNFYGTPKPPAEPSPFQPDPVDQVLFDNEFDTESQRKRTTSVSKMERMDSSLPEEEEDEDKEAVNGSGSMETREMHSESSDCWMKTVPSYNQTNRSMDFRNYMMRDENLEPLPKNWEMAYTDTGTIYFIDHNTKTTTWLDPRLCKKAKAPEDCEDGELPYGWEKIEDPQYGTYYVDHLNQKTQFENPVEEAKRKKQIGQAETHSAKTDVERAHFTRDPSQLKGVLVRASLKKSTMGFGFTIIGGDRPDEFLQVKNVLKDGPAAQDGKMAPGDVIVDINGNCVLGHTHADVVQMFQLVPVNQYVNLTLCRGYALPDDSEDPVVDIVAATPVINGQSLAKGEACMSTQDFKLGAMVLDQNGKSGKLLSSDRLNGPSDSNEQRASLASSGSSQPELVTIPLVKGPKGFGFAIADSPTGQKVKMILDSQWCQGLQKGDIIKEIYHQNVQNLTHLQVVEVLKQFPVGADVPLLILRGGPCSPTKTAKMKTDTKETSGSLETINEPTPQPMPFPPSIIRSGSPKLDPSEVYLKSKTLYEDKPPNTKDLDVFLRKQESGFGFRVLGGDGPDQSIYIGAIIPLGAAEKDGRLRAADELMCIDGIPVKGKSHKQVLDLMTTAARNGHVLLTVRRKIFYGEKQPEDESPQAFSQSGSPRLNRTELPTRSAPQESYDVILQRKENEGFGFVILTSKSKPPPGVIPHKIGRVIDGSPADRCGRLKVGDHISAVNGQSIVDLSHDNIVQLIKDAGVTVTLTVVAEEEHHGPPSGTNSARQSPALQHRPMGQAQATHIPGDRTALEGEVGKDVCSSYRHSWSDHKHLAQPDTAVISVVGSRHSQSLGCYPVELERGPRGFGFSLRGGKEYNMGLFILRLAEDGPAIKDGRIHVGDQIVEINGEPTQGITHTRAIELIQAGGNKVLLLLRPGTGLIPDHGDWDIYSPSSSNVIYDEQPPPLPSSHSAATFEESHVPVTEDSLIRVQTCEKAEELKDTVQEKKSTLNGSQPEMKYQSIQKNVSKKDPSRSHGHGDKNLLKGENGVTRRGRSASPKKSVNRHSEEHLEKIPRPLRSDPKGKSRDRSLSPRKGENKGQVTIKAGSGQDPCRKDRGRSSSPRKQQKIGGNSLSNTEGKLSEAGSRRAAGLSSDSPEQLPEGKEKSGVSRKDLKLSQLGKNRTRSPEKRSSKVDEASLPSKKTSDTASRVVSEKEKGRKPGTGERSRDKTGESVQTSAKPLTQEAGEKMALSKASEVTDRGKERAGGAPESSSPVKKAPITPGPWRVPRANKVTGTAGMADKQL

Flag-β-catenin L781A = Flag-β-catenin L781A (UniProt P35222); assay: co-IP; COS-7 cells transfected with His-MAGI3 and Flag-β-catenin WT, T779A or L781A; lysates immunoprecipitated with anti-Flag affinity gel, blotted with anti-His
Flag-β-catenin T779A = Flag-β-catenin T779A (UniProt P35222); assay: as above
[3] = target: Flag-tagged wild-type β-catenin (UniProt P35222); assay: as above

binding [1]: binds
Molecule: Flag-tagged wild-type β-catenin (from UniProt P35222 1-781)

binding [2]: binds
B1: β-catenin, endogenous in C6 glioma cells (protein, UniProt Q9WU82 1-781)
chain: MATQADLMELDMAMEPDRKAAVSHWQQQSYLDSGIHSGATTTAPSLSGKGNPEEEDVDTSQVLYEWEQGFSQSFTQEQVADIDGQYAMTRAQRVRAAMFPETLDEGMQIPSTQFDAAHPTNVQRLAEPSQMLKHAVVNLINYQDDAELATRAIPELTKLLNDEDQVVVNKAAVMVHQLSKKEASRHAIMRSPQMVSAIVRTMQNTNDVETARCTAGTLHNLSHHREGLLAIFKSGGIPALVKMLGSPVDSVLFYAITTLHNLLLHQEGAKMAVRLAGGLQKMVALLNKTNVKFLAITTDCLQILAYGNQESKLIILASGGPQALVNIMRTYTYEKLLWTTSRVLKVLSVCSSNKPAIVEAGGMQALGPHLTDPSQRLVQNCLWTLRNLSDAATKQEGMEGLLGTLVQLLGSDDINVVTCAAGILSNLTCNNYKNKMMVCQVGGIEALVRTVLRAGDREDITEPAICALRHLTSRHQEAEMAQNAVRLHYGLPVVVKLLHPPSHWPLIKATVGLIRNLALCPANHAPLREQGAIPRLVQLLVRAHQDTQRRTSMGGTQQQFVEGVRMEEIVEGCTGALHILARDVHNRIVIRGLNTIPLFVQLLYSPIENIQRVAAGVLCELAQDKEAAEAIEAEGATAPLTELLHSRNEGVATYAAAVLFRMSEDKPQDYKKRLSVELTSSLFRTEPMAWNETADLGLDIGAQGEALGYRQDDPSYRSFHSGGYGQDALGMDPMMEHEMGGHHPGADYPVDGLPDLGHAQDLMDGLPPGDSNQLAWFDTDL

binding (Flag-β-catenin L781A): no binding | binding (Flag-β-catenin T779A): no binding | binding [3]: binds
B2: His-MAGI3 (protein, UniProt Q5TCQ9 1-1481)
chain: MSKTLKKKKHWLSKVQECAVSWAGPPGDFGAEIRGGAERGEFPYLGRLREEPGGGTCCVVSGKAPSPGDVLLEVNGTPVSGLTNRDTLAVIRHFREPIRLKTVKPGKVINKDLRHYLSLQFQKGSIDHKLQQVIRDNLYLRTIPCTTRAPRDGEVPGVDYNFISVEQFKALEESGALLESGTYDGNFYGTPKPPAEPSPFQPDPVDQVLFDNEFDAESQRKRTTSVSKMERMDSSLPEEEEDEDKEAINGSGNAENRERHSESSDWMKTVPSYNQTNSSMDFRNYMMRDETLEPLPKNWEMAYTDTGMIYFIDHNTKTTTWLDPRLCKKAKAPEDCEDGELPYGWEKIEDPQYGTYYVDHLNQKTQFENPVEEAKRKKQLGQVEIGSSKPDMEKSHFTRDPSQLKGVLVRASLKKSTMGFGFTIIGGDRPDEFLQVKNVLKDGPAAQDGKIAPGDVIVDINGNCVLGHTHADVVQMFQLVPVNQYVNLTLCRGYPLPDDSEDPVVDIVAATPVINGQSLTKGETCMNPQDFKPGAMVLEQNGKSGHTLTGDGLNGPSDASEQRVSMASSGSSQPELVTIPLIKGPKGFGFAIADSPTGQKVKMILDSQWCQGLQKGDIIKEIYHQNVQNLTHLQVVEVLKQFPVGADVPLLILRGGPPSPTKTAKMKTDKKENAGSLEAINEPIPQPMPFPPSIIRSGSPKLDPSEVYLKSKTLYEDKPPNTKDLDVFLRKQESGFGFRVLGGDGPDQSIYIGAIIPLGAAEKDGRLRAADELMCIDGIPVKGKSHKQVLDLMTTAARNGHVLLTVRRKIFYGEKQPEDDSSQAFISTQNGSPRLNRAEVPARPAPQEPYDVVLQRKENEGFGFVILTSKNKPPPGVIPHKIGRVIEGSPADRCGKLKVGDHISAVNGQSIVELSHDNIVQLIKDAGVTVTLTVIAEEEHHGPPSGTNSARQSPALQHRPMGQSQANHIPGDRSALEGEIGKDVSTSYRHSWSDHKHLAQPDTAVISVVGSRHNQNLGCYPVELERGPRGFGFSLRGGKEYNMGLFILRLAEDGPAIKDGRIHVGDQIVEINGEPTQGITHTRAIELIQAGGNKVLLLLRPGTGLIPDHGDWDINNPSSSNVIYDEQSPLPPSSHFASIFEESHVPVIEESLRVQICEKAEELKDIVPEKKSTLNENQPEIKHQSLLQKNVSKRDPPSSHGHSNKKNLLKVENGVTRRGRSVSPKKPASQHSEEHLDKIPSPLKNNPKRRPRDQSLSPSKGENKSCQVSTRAGSGQDQCRKSRGRSASPKKQQKIEGSKAPSNAEAKLLEGKSRRIAGYTGSNAEQIPDGKEKSDVIRKDAKQNQLEKSRTRSPEKKIKRMVEKSLPSKMTNKTTSKEVSENEKGKKVTTGETSSSNDKIGENVQLSEKRLKQEPEEKVVSNKTEDHKGKELEAADKNKETGRFKPESSSPVKKTLITPGPWKVPSGNKVTGTIGMAEKRQ

Reference: article PMC4742146
